From patent publication US10159726B2, “Peptides, combination of peptides and scaffolds for use in immunotherapeutic treatment of various cancers” (Immatics Biotechnologies GmbH, priority 2015, dated 2018)
For some of these results: Expression values are those of the mRNA of the gene that encodes the peptide; a gene is named only where it was looked up.

Columns and labels:
Parameters in all cases: species or system human
[1] = system: HLA-A*02 molecules of primary tumors; assay: Identification and relative LC-MS quantitation of HLA-A*02 tumor-associated peptides presented on tissue samples (XPRESIDENT presentation profiles)
[2] = system: source genes of selected peptides; assay: Expression profiling of source genes by in-house RNAseq, tumor vs normal tissues (target coverage)
[3] = system: source genes of selected peptides; assay: Target coverage of source genes in tumor entities based on TCGA Research Network data; settings: over-expressed = more than 2-fold above the highest 75% percentile of normal organs; for Target coverage, over-expression category of source gene, BLCA (N = 408): Bladder urothelial carcinoma; for Target coverage, over-expression category of source gene, CESC (N = 307): Cervical squamous cell carcinoma and endocervical adenocarcinoma; for Target coverage, over-expression category of source gene, CHOL (N = 36): Cholangiocarcinoma; for Target coverage, over-expression category of source gene, HNSC (N = 521): Head and neck squamous cell carcinoma; for Target coverage, over-expression category of source gene, DLBC (N = 48): Lymphoid neoplasm diffuse large B-cell lymphoma; for Target coverage, over-expression category of source gene, MESO (N = 87): Mesothelioma; for Target coverage, over-expression category of source gene, KIRP (N = 291): Kidney renal papillary cell carcinoma; for Target coverage, over-expression category of source gene, PCPG (N = 184): Pheochromocytoma and paraganglioma
[4] = Table 8A: selected HLA-A*02-binding tumor-associated peptides, cancer entities on which the peptide was found presented
[5] = Table 8B: selected HLA-A*02 peptides, presentation on additional cancer entities

Substance	Peptide Presentation on cancer entities [1, 4]	Peptide Presentation on cancer entities [1, 5]	Target coverage, over-expression category of source gene, BLCA (N = 408) [3]	Target coverage, over-expression category of source gene, CESC (N = 307) [3]	Target coverage, over-expression category of source gene, CHOL (N = 36) [3]	Target coverage, over-expression category of source gene, HNSC (N = 521) [3]	Target coverage, over-expression category of source gene, DLBC (N = 48) [3]	Target coverage, over-expression category of source gene, MESO (N = 87) [3]	Target coverage, over-expression category of source gene, KIRP (N = 291) [3]	Target coverage, over-expression category of source gene, PCPG (N = 184) [3]	further results
335: peptide found in NUP210 (gene looked up) (VLLAAGPSAA; listed as Homo sapiens) [compound 335]	UBC, CLL, NSCLC, GC, clPC	AML, CRC, UTC, NHL	B (>=20% of tumors above the cutoff, but <50%)	A (>=50% of tumors above the cutoff)	C (>=5% of tumors above the cutoff, but <20%)	C (>=5% of tumors above the cutoff, but <20%)	A (>=50% of tumors above the cutoff)	C (>=5% of tumors above the cutoff, but <20%)			Target coverage, over-expression of source gene, AML ([2]; AML (N = 7), over-expression = more than 1.5-fold higher expression on tumor vs highest-expressing relevant normal tissue, in-house RNASeq): I (<19% over-expression = I); Target coverage, over-expression of source gene, BRCA ([2]; BRCA (N = 10), over-expression = more than 1.5-fold vs highest normal tissue, in-house RNASeq): I (<19% over-expression = I); Target coverage, over-expression of source gene, CLL ([2]; CLL (N = 10), over-expression = more than 1.5-fold vs highest normal tissue, in-house RNASeq): II (20-49% = II); Target coverage, over-expression of source gene, CRC ([2]; CRC (N = 20), over-expression = more than 1.5-fold vs highest normal tissue, in-house RNASeq): I (<19% over-expression = I); Target coverage, over-expression of source gene, GB ([2]; GB (N = 24), over-expression = more than 1.5-fold vs highest normal tissue, in-house RNASeq): I (<19% over-expression = I); Target coverage, over-expression of source gene, HCC ([2]; HCC (N = 15), over-expression = more than 1.5-fold vs highest normal tissue, in-house RNASeq): I (<19% over-expression = I); Target coverage, over-expression of source gene, OC ([2]; OC (N = 12), over-expression = more than 1.5-fold vs highest normal tissue, in-house RNASeq): I (<19% over-expression = I); Target coverage, over-expression of source gene, OSCAR ([2]; OSCAR (N = 11), over-expression = more than 1.5-fold vs highest normal tissue, in-house RNASeq): I (<19% over-expression = I); Target coverage, over-expression of source gene, PC ([2]; PC (N = 26), over-expression = more than 1.5-fold vs highest normal tissue, in-house RNASeq): I (<19% over-expression = I); Target coverage, over-expression of source gene, RCC ([2]; RCC (N = 10), over-expression = more than 1.5-fold vs highest normal tissue, in-house RNASeq): I (<19% over-expression = I); Target coverage, over-expression of source gene, SCLC ([2]; SCLC (N = 10), over-expression = more than 1.5-fold vs highest normal tissue, in-house RNASeq): II (20-49% = II); Target coverage for source genes of selected peptides, GBC_CCC (N = 10) ([2]; gallbladder adenocarcinoma and cholangiocarcinoma, share of tumors with more than 1.5-fold higher expression than the highest-expressing relevant normal tissue, in-house RNAseq): I (<19% over-expression = I); Target coverage for source genes of selected peptides, GC (N = 11) ([2]; gastric cancer, share of tumors with more than 1.5-fold higher expression than the highest-expressing relevant normal tissue, in-house RNAseq): I (<19% over-expression = I); Target coverage for source genes of selected peptides, HNSCC (N = 10) ([2]; head and neck small cell carcinoma, share of tumors with more than 1.5-fold higher expression than the highest-expressing relevant normal tissue, in-house RNAseq): I (<19% over-expression = I); Target coverage for source genes of selected peptides, MEL (N = 10) ([2]; melanoma, share of tumors with more than 1.5-fold higher expression than the highest-expressing relevant normal tissue, in-house RNAseq): I (<19% over-expression = I); Target coverage for source genes of selected peptides, NHL (N = 10) ([2]; non-Hodgkin lymphoma, share of tumors with more than 1.5-fold higher expression than the highest-expressing relevant normal tissue, in-house RNAseq): III (50-69% = III); Target coverage, over-expression of source gene, pNSCLC ([2]; pNSCLC (N = 11), over-expression = more than 1.5-fold vs highest normal tissue, in-house RNASeq): I (<19% over-expression = I); Target coverage for source genes of selected peptides, PCA (n = 10) ([2]; prostate cancer and benign prostate hyperplasia, share of tumors with more than 1.5-fold higher expression than the highest-expressing relevant normal tissue, in-house RNAseq): I (<19% over-expression = I); Target coverage for source genes of selected peptides, UBC (N = 10) ([2]; urinary bladder cancer, share of tumors with more than 1.5-fold higher expression than the highest-expressing relevant normal tissue, in-house RNAseq): I (<19% over-expression = I); Target coverage for source genes of selected peptides, UTC (N = 10) ([2]; uterine cancer, share of tumors with more than 1.5-fold higher expression than the highest-expressing relevant normal tissue, in-house RNAseq): I (<19% over-expression = I)
321: peptide found in NME2 (gene looked up) (SLWFKPEEL; listed as Homo sapiens) [compound 321]	GC, BRCA, CLL, PC, GB, UBC, PCA, CRC, SCLC, HCC, MEL, OC, NSCLC, GBC_CCC, OSCAR, clPC, NHL	UTC, HNSCC, AML	B (>=20% of tumors above the cutoff, but <50%)	C (>=5% of tumors above the cutoff, but <20%)	C (>=5% of tumors above the cutoff, but <20%)	B (>=20% of tumors above the cutoff, but <50%)	B (>=20% of tumors above the cutoff, but <50%)	B (>=20% of tumors above the cutoff, but <50%)	C (>=5% of tumors above the cutoff, but <20%)	B (>=20% of tumors above the cutoff, but <50%)	Target coverage, over-expression category of source gene, ACC (N = 79) ([3]; Adrenocortical carcinoma): B (>=20% of tumors above the cutoff, but <50%); Target coverage, over-expression category of source gene, LGG (N = 534) ([3]; Lower grade glioma): A (>=50% of tumors above the cutoff)
92: peptide found in IGFBP3 (gene looked up) (LLRGPPVARA; listed as Homo sapiens) [compound 92]	clPC, PC, RCC, UBC, OSCAR		B (>=20% of tumors above the cutoff, but <50%)			C (>=5% of tumors above the cutoff, but <20%)			C (>=5% of tumors above the cutoff, but <20%)		
40: peptide found in CLDN6 (gene looked up) (SLLALPQDLQA; listed as Homo sapiens) [compound 40]	PCA, NSCLC, CRC, UBC, OC	GBC_CCC, BRCA, UTC	C (>=5% of tumors above the cutoff, but <20%)	C (>=5% of tumors above the cutoff, but <20%)	A (>=50% of tumors above the cutoff)	C (>=5% of tumors above the cutoff, but <20%)		C (>=5% of tumors above the cutoff, but <20%)		C (>=5% of tumors above the cutoff, but <20%)	Target coverage, over-expression category of source gene, STAD (N = 415) ([3]; Stomach adenocarcinoma): C (>=5% of tumors above the cutoff, but <20%); Target coverage, over-expression category of source gene, TGCT (N = 156) ([3]; Testicular germ cell tumors): A (>=50% of tumors above the cutoff); Target coverage, over-expression category of source gene, THYM (N = 120) ([3]; Thymoma): C (>=5% of tumors above the cutoff, but <20%); Target coverage, over-expression category of source gene, THCA (N = 513) ([3]; Thyroid carcinoma): A (>=50% of tumors above the cutoff); Target coverage, over-expression category of source gene, UCS (N = 57) ([3]; Uterine carcinosarcoma): A (>=50% of tumors above the cutoff); Target coverage, over-expression category of source gene, UCEC (N = 546) ([3]; Uterine corpus endometrial carcinoma): B (>=20% of tumors above the cutoff, but <50%)
